The list shows a part of the results.
biological target: T1, OsSMF1 (Oryza sativa, UniProt Q6ZLB0 1-436); experiment: protein-binding microarray (RPBM); PBS, 2% BSA, 51.3 ng/ul salmon testes DNA, 50 uM zinc acetate, 200 nM TF, 25 C, 1 h; high values mean tight binding; conditions: protein: recombinant; tags: N-terminal polyhistidine and DsRed monomer fusion (pET32a); chain copies: 2; label: CyDye5-dUTP incorporated in the synthesized complementary strand; 3' TTTTT single-stranded linker to array surface; dsDNA, one strand shown
T1 sequence: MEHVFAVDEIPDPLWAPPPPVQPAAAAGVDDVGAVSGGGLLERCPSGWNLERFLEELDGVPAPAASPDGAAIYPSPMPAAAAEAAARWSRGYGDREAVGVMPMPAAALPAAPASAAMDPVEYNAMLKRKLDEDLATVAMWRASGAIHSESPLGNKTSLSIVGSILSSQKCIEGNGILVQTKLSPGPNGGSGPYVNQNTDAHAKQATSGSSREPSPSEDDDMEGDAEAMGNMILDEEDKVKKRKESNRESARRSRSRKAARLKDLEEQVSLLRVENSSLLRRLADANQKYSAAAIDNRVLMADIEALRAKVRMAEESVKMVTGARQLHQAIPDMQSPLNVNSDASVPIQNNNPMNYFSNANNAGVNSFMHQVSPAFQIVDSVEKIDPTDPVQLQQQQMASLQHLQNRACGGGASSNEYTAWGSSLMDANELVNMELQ
Method in brief: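 In PBS with 2% BSA, salmon testes DNA and 50 µM zinc acetate, 200 nM protein was incubated on a custom Agilent array at 25 °C for 1 h and then washed off. The array had been made double-stranded by primer extension with Cy5-dUTP and blocked with 2% BSA. The proteins were transcription factors fused N-terminally to polyhistidine and DsRed, expressed in E. coli BL21-CodonPlus and purified on Ni–NTA. The binding signal is per-feature fluorescence intensity (arbitrary units) from an Axon 4000B scanner.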

Row | Sequence | binding signal
1 | CGGTCGTAGCCACTGGCGCGCCTTAGTCAGCGCGTGGGGCCGGAGTCACCTAGTGCAG | 7010 fluorescence intensity (a.u.)
2 | TTGCCGGTACTTTGGTACGTCATCCGTGTATAAGTCGGTTCGGAGTCACCTAGTGCAG | 5840 fluorescence intensity (a.u.)
3 | AACCCAACCCAACTCACTTCACGGCCCATCATCCCACACTCGGAGTCACCTAGTGCAG | 3380 fluorescence intensity (a.u.)
4 | TCTCTTCTTTATGCCAACTGGCAATGGCATCCTCCAATCCCGGAGTCACCTAGTGCAG | 5270 fluorescence intensity (a.u.)
5 | GGGCACGCGAGCTGCTCGACACGTCGCTCGCTCTCCAGATCGGAGTCACCTAGTGCAG | 4620 fluorescence intensity (a.u.)
6 | GTCCCTTAATAGCTCGAGAAGTGTCTCCACGATGACGGGGCGGAGTCACCTAGTGCAG | 5400 fluorescence intensity (a.u.)
7 | CAAATGTTGACACCTAGCTCTCACCATGCCACCTCAACTTCGGAGTCACCTAGTGCAG | 6030 fluorescence intensity (a.u.)
8 | AGGCGATCGATTCCTGGACACTCGCGCCACGCCACCCCACCGGAGTCACCTAGTGCAG | 5700 fluorescence intensity (a.u.)
9 | GGGCGTGGTGGTGGTGGTGGTGGTTATACGGTTTTCGGTTCGGAGTCACCTAGTGCAG | 4400 fluorescence intensity (a.u.)
10 | GGAGCGCCCGCCTTATGGTCTCGGCGCTGTCGTGGCGCGGCGGAGTCACCTAGTGCAG | 3430 fluorescence intensity (a.u.)
11 | CTTGCTGCAGCCACACAAAGAAAGAGTGACTCATCGTTTACGGAGTCACCTAGTGCAG | 5800 fluorescence intensity (a.u.)
12 | TAAAATAGTCCTTCCACAGTGGGGCTGCTTGGGCTTGTGTCGGAGTCACCTAGTGCAG | 23400 fluorescence intensity (a.u.)
13 | TTCCGGTGATGTCCTTCTTCTTGGCGCTCCTACTAAGGCACGGAGTCACCTAGTGCAG | 23800 fluorescence intensity (a.u.)
14 | TGCTGCTCTTGACACCACGTCGTTGCTGCCCTGCTTCCACCGGAGTCACCTAGTGCAG | 3810 fluorescence intensity (a.u.)
15 | AGCAGACTCCACGTCGTCACCAACTTCCTTCCTCCTGGTCCGGAGTCACCTAGTGCAG | 11300 fluorescence intensity (a.u.)
16 | AGGGGCGGAGGGCAGCGATTTTGGTTGGTAGTAGTACGGGCGGAGTCACCTAGTGCAG | 3610 fluorescence intensity (a.u.)
17 | GTCATGTGATTGATGATTCAGCATCCCTTGAGGCTCAGTGCGGAGTCACCTAGTGCAG | 6080 fluorescence intensity (a.u.)
18 | ATTTAATAAGCTTCATCAATTTCGTGTGGAGGCCCACGCTCGGAGTCACCTAGTGCAG | 3250 fluorescence intensity (a.u.)
19 | TGTGCCTTCATAGGGTTGAGTCTACGTGTGTTGTGAGTGACGGAGTCACCTAGTGCAG | 3560 fluorescence intensity (a.u.)
20 | CTAATCATGGATTAATTAGGCTCAATAGATTCGTCTCACGCGGAGTCACCTAGTGCAG | 16900 fluorescence intensity (a.u.)
21 | GGCTGGTGGTTTGTTGATGTGGAGCCCGGCCCGGCCGCACCGGAGTCACCTAGTGCAG | 4310 fluorescence intensity (a.u.)

Row | Sequence | binding signal
22 | CGACACCTTCGTCTCCACGCTGAGTCGCTGACCACCATGGCGGAGTCACCTAGTGCAG | 3900 fluorescence intensity (a.u.)
23 | CTATGTTAGAGGGCAGTGGTGTATCAATTCATTGTCCTCCCGGAGTCACCTAGTGCAG | 3300 fluorescence intensity (a.u.)
24 | CCGGTCGTTTCCCGTATTGTTGGCATATATGTACACGGAGCGGAGTCACCTAGTGCAG | 4830 fluorescence intensity (a.u.)
25 | CCTAGACTTCCTCTCTCTCGCGTCGCGCTCGCCTTCGCCTCGGAGTCACCTAGTGCAG | 3250 fluorescence intensity (a.u.)
26 | AACGGGTTGTTTTGGTTTTGCTGATGTACGACATATCAAGCGGAGTCACCTAGTGCAG | 4460 fluorescence intensity (a.u.)
27 | AACAATAGTGGGTGATGTGGCAATGATTCTAGATCCTAGCCGGAGTCACCTAGTGCAG | 18200 fluorescence intensity (a.u.)
28 | ATCCCTCTTTACTTAAAGACTACGGAAGAGTGCATGACAGCGGAGTCACCTAGTGCAG | 3160 fluorescence intensity (a.u.)
29 | AGTACACCTAGCTCTGTCTGTCTAGCTTAACGCCGTGTGTCGGAGTCACCTAGTGCAG | 22500 fluorescence intensity (a.u.)
30 | GATATAATACTGATCTCATATCCAAGTTTAATTTCAACATCGGAGTCACCTAGTGCAG | 20300 fluorescence intensity (a.u.)
31 | CGGATCCAATGTGCGGAACCGGCTCATGAACAGTGTGAAACGGAGTCACCTAGTGCAG | 12700 fluorescence intensity (a.u.)
32 | GCGAGGCCCGGCCCAACGCCCAGCCCTTACCCCACACATGCGGAGTCACCTAGTGCAG | 21500 fluorescence intensity (a.u.)
33 | CCATCTCGGCCCATGAGGATGCTGACGTCACCGCGTCGTCCGGAGTCACCTAGTGCAG | 42700 fluorescence intensity (a.u.)
34 | ATCAGCCGCTTAAAATGTAGAGTACTCCCAAGCAACGTTGCGGAGTCACCTAGTGCAG | 4140 fluorescence intensity (a.u.)
35 | AGACTCGTCGATGCTGGCGTCACCACCGTCCCCGACTTCTCGGAGTCACCTAGTGCAG | 12700 fluorescence intensity (a.u.)
36 | TTTCTTATAGGCACAATACTTTGTTTCAAAGTCAAAGAAGCGGAGTCACCTAGTGCAG | 3850 fluorescence intensity (a.u.)
37 | GGAAGAGAAGTTTGCCTTGTCAGCAACTGTAGTTTATTGCCGGAGTCACCTAGTGCAG | 5430 fluorescence intensity (a.u.)
38 | AATATAGAATATCTCAATCGAGGTGTGGCTGACAGGTCACCGGAGTCACCTAGTGCAG | 5520 fluorescence intensity (a.u.)
39 | TATAGAATTTTCTCTTAAAATACTTATCCGATTTATGATCCGGAGTCACCTAGTGCAG | 54100 fluorescence intensity (a.u.)
40 | ACGCCGGAGACACGCAAGGTGTGGTATGCCTCATTGCATCCGGAGTCACCTAGTGCAG | 4630 fluorescence intensity (a.u.)
41 | GGCGAATCTTGCAGTCTCATTTTCTACCAGTCCTGGTTTGCGGAGTCACCTAGTGCAG | 3380 fluorescence intensity (a.u.)
42 | GAGCCCACGCCGCGCAGATCCACCTCTCTCCGCCCTGGATCGGAGTCACCTAGTGCAG | 3450 fluorescence intensity (a.u.)

Entries 24–26 from above:
Row | Sequence | binding signal
24 | CCGGTCGTTTCCCGTATTGTTGGCATATATGTACACGGAGCGGAGTCACCTAGTGCAG | 4830 fluorescence intensity (a.u.)
25 | CCTAGACTTCCTCTCTCTCGCGTCGCGCTCGCCTTCGCCTCGGAGTCACCTAGTGCAG | 3250 fluorescence intensity (a.u.)
26 | AACGGGTTGTTTTGGTTTTGCTGATGTACGACATATCAAGCGGAGTCACCTAGTGCAG | 4460 fluorescence intensity (a.u.)
